Data as given in PubChem BioAssay AID1224831 (NIAID, 2016)
Shown is one part, drawn at random, of about 3,500 reagents. 731 of all reagents (21%) count as active. 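Active means either lowered or raised reporter signal; the gene-median score did not drive the per-siRNA calls.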 Entries without a mark were called inactive. Reagents against one gene are numbered here. Not all columns of the deposit are shown.

- Purpose: 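Retesting screen hits on the TLR4-driven TNF response with six separate siRNAs each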 (follow-up of hits)
- Cells: human THP-1 B5 monocytic leukaemia cells carrying a TNF promoter luciferase reporter, made macrophage-like with PMA
- Reagent: single siRNA against human genes, 50 nM
- Duration: about 68 h of knock-down, then 4 h LPS
- Conditions: LPS (Salmonella minnesota, TLR-grade) at 10 ng/ml for 4 h; PMA 5 ng/ml present during knock-down
- Measured: 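TNF promoter reporter read as dual luciferase ratio after 4 h LPS, normalised per plate to its median, given as replicate mean robust z-score per siRNA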
- Direction: TNF reporter z-score: higher = stronger LPS-induced TNF reporter signal
- Rule for the call: 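Active when the replicate mean z-score is about -1 or lower, or about 1.5 or higher; lowered and raised TNF reporter signal both count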
- Calls: active = changed TNF reporter (either direction); inactive = little change

TNF reporter z-score, replicate mean, by target and reagent
ANKH (ANKH inorganic pyrophosphate transport regulator): #1 -0.56; #2 0.67; #3 0.21; #4 1.18; #5 0.48; #6 0.37
OASL (2'-5'-oligoadenylate synthetase like): #1 1.76 (active); #2 -1.29 (active); #3 0.83; #4 0.34; #5 0.25; #6 0.15
CNTNAP5 (contactin associated protein family member 5): #1 0.56; #2 0.38; #3 2.07 (active); #4 5.49 (active); #5 -0.04; #6 1.83 (active)
KRTAP3-1 (keratin associated protein 3-1): #1 0.3; #2 -0.12; #3 0.45; #4 -0.39; #5 1.22; #6 0.22
SLC35D4: #1 0.36; #2 -0.61; #3 0.36; #4 -0.02; #5 -1.17 (active); #6 0.25
GHRL (ghrelin and obestatin prepropeptide): #1 -0.25; #2 0.24; #3 0.18; #4 0.28; #5 -0.01; #6 0.7
SERPINA4 (serpin family A member 4): #1 0.04; #2 0.45; #3 0.3; #4 -0.32; #5 1.61 (active); #6 -0.84
DEFA5 (defensin alpha 5): #1 1.74 (active); #2 -0.78; #3 2.06 (active); #4 0.01; #5 -0.98; #6 1.19
RPP25 (ribonuclease P/MRP subunit p25): #1 1.45; #2 -0.3; #3 0.45; #4 0.01; #5 1.64 (active); #6 0.18
ATM (ATM serine/threonine kinase): #1 -0.28; #2 2.36 (active); #3 -0.8; #4 -0.3; #5 1.49; #6 0.46

Targets listed so far whose gene name starts with S or s (12):
TNF reporter z-score, replicate mean, by target and reagent
SLC35D4: #1 0.36; #2 -0.61; #3 0.36; #4 -0.02; #5 -1.17 (active); #6 0.25
SERPINA4 (serpin family A member 4): #1 0.04; #2 0.45; #3 0.3; #4 -0.32; #5 1.61 (active); #6 -0.84

Additional records follow:
TNF reporter z-score, replicate mean, by target and reagent
HTR6 (5-hydroxytryptamine receptor 6): #1 1.09; #2 0.53; #3 -0.47; #4 -0.64; #5 4.02 (active); #6 -0.11
ARRDC2 (arrestin domain containing 2): #1 -0.05; #2 -2.05 (active); #3 -0.69; #4 -1.72 (active); #5 -0.99; #6 -1.16 (active)
SIRPD (signal regulatory protein delta): #1 0.28; #2 0.47; #3 0.66; #4 1.75 (active); #5 0.32; #6 0.09
H1-8 (H1.8 linker histone): #1 -0.72; #2 1.19; #3 -1.34 (active); #4 0.88; #5 2.9 (active); #6 -0.3
CYB5A (cytochrome b5 type A): #1 -0.67; #2 1.74 (active); #3 1.07; #4 0.37; #5 0.21; #6 2.54 (active)
CSGALNACT1 (chondroitin sulfate N-acetylgalactosaminyltransferase 1): #1 1.31; #2 -0.39; #3 -1.02 (active); #4 -0.41; #5 3.84 (active); #6 0.04
ZBTB40 (zinc finger and BTB domain containing 40): #1 -1.08 (active); #2 -1.6 (active); #3 0.77; #4 -0.24; #5 1.18; #6 -0.32
OR52A5 (olfactory receptor family 52 subfamily A member 5): #1 0.79; #2 0.06; #3 0.07; #4 1.42; #5 0.01; #6 1.11
